Data as given in PubChem BioAssay AID1224830 (NIAID, 2016).
This is an unselected part of about 18,000 deposited reagents. Over the whole deposit, about 2,900 (16%) were called active. 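Calls are made per well; low scores hint the gene aids the LPS response, high scores that it dampens it.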 Repeated entries: four replicate wells of each siRNA pool.

- Assay: 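Regulators of TLR4 signalling towards TNF-alpha in macrophage-like cells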 (primary screen)
- Cell system: human THP-1 monocytic leukaemia cells, TNF dual-luciferase reporter clone, PMA-differentiated to macrophage-like cells
- Reagent: siRNA pool against human genes, 50 nM
- Duration: LPS for 4 h, given about 3 days after siRNA transfection
- Conditions: bacterial LPS (TLR4 ligand), 10 ng/ml
- Read-out: 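Ratio of firefly to renilla light, scaled to the plate median and expressed as a robust z-score per replicate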
- Reading the numbers: TNF reporter robust z-score: higher = stronger TNF reporter response to LPS
- Hit rule: 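a well is active when its z-score exceeds 2.8 or falls below -1.5; control wells carry no call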

| gene | TNF reporter robust z-score | outcome |
| --- | --- | --- |
| HOXA3 (homeobox A3) | -0.19 | inactive |
| HOXA3 (homeobox A3) | 1 | inactive |
| HOXA3 (homeobox A3) | 0.58 | inactive |
| HOXA3 (homeobox A3) | -0.15 | inactive |
| IGF1R (insulin like growth factor 1 receptor) | -0.52 | inactive |
| IGF1R (insulin like growth factor 1 receptor) | 0.16 | inactive |
| IGF1R (insulin like growth factor 1 receptor) | -0.49 | inactive |
| IGF1R (insulin like growth factor 1 receptor) | 0.44 | inactive |
| ECHDC2 (enoyl-CoA hydratase domain containing 2) | -1.14 | inactive |
| ECHDC2 (enoyl-CoA hydratase domain containing 2) | -0.68 | inactive |
| ECHDC2 (enoyl-CoA hydratase domain containing 2) | -1.15 | inactive |
| ECHDC2 (enoyl-CoA hydratase domain containing 2) | -0.48 | inactive |
| SLC16A10 | -1.89 | active |
| SLC16A10 | -1.51 | active |
| SLC16A10 | -1.65 | active |
| SLC16A10 | -1.39 | inactive |
| USP12 (ubiquitin specific peptidase 12) | 0.01 | inactive |
| USP12 (ubiquitin specific peptidase 12) | -0.01 | inactive |
| USP12 (ubiquitin specific peptidase 12) | 0.43 | inactive |
| USP12 (ubiquitin specific peptidase 12) | -0.23 | inactive |
| CKS2 (CDC28 protein kinase regulatory subunit 2) | -0.6 | inactive |
| CKS2 (CDC28 protein kinase regulatory subunit 2) | -0.7 | inactive |
| CKS2 (CDC28 protein kinase regulatory subunit 2) | 0.45 | inactive |
| CKS2 (CDC28 protein kinase regulatory subunit 2) | -0.77 | inactive |
| TRIM43B (tripartite motif containing 43B) | -1.61 | active |
| TRIM43B (tripartite motif containing 43B) | -0.66 | inactive |
| TRIM43B (tripartite motif containing 43B) | -1.15 | inactive |
| TRIM43B (tripartite motif containing 43B) | 0.21 | inactive |
| HOGA1 (4-hydroxy-2-oxoglutarate aldolase 1) | 0.39 | inactive |
| HOGA1 (4-hydroxy-2-oxoglutarate aldolase 1) | 0.85 | inactive |
| HOGA1 (4-hydroxy-2-oxoglutarate aldolase 1) | -0.14 | inactive |
| HOGA1 (4-hydroxy-2-oxoglutarate aldolase 1) | 1.69 | inactive |
| ATPAF2 (ATP synthase mitochondrial F1 complex assembly factor 2) | -1.05 | inactive |
| ATPAF2 (ATP synthase mitochondrial F1 complex assembly factor 2) | 0.27 | inactive |
| ATPAF2 (ATP synthase mitochondrial F1 complex assembly factor 2) | 0.17 | inactive |
| ATPAF2 (ATP synthase mitochondrial F1 complex assembly factor 2) | -0.47 | inactive |
| MIDEAS (mitotic deacetylase associated SANT domain protein) | -1.81 | active |
| MIDEAS (mitotic deacetylase associated SANT domain protein) | -1.35 | inactive |
| MIDEAS (mitotic deacetylase associated SANT domain protein) | -1.69 | active |
| P2RY13 (purinergic receptor P2Y13) | 0.04 | inactive |
| P2RY13 (purinergic receptor P2Y13) | -0.04 | inactive |
| P2RY13 (purinergic receptor P2Y13) | -0.23 | inactive |
| P2RY13 (purinergic receptor P2Y13) | 0.33 | inactive |
| CDO1 (cysteine dioxygenase type 1) | 0.7 | inactive |
| CDO1 (cysteine dioxygenase type 1) | 1.16 | inactive |
| CDO1 (cysteine dioxygenase type 1) | 1.59 | inactive |
| CDO1 (cysteine dioxygenase type 1) | 1 | inactive |
| TST (thiosulfate sulfurtransferase) | -0.85 | inactive |
| TST (thiosulfate sulfurtransferase) | 0.83 | inactive |
| TST (thiosulfate sulfurtransferase) | 0.32 | inactive |
| TST (thiosulfate sulfurtransferase) | 2.35 | inactive |
| PSMD10 (proteasome 26S subunit, non-ATPase 10) | 0.09 | inactive |
| PSMD10 (proteasome 26S subunit, non-ATPase 10) | -0.14 | inactive |
| PSMD10 (proteasome 26S subunit, non-ATPase 10) | -0.06 | inactive |
| PSMD10 (proteasome 26S subunit, non-ATPase 10) | 1.26 | inactive |
| RPL32 (ribosomal protein L32) | -1.7 | active |
| RPL32 (ribosomal protein L32) | -1.38 | inactive |
| RPL32 (ribosomal protein L32) | -0.98 | inactive |
| RPL32 (ribosomal protein L32) | 0.36 | inactive |
| ATP6V1B1 (ATPase H+ transporting V1 subunit B1) | 1.21 | inactive |
| ATP6V1B1 (ATPase H+ transporting V1 subunit B1) | 0.28 | inactive |
| ATP6V1B1 (ATPase H+ transporting V1 subunit B1) | 2.48 | inactive |
| ATP6V1B1 (ATPase H+ transporting V1 subunit B1) | -0.64 | inactive |
| LRRN1 (leucine rich repeat neuronal 1) | 4.16 | active |
| LRRN1 (leucine rich repeat neuronal 1) | 2.02 | inactive |
| LRRN1 (leucine rich repeat neuronal 1) | 0.45 | inactive |
| LRRN1 (leucine rich repeat neuronal 1) | 0.75 | inactive |
| ANO2 (anoctamin 2) | 0.46 | inactive |
| ANO2 (anoctamin 2) | 0.23 | inactive |
| ANO2 (anoctamin 2) | 0.09 | inactive |
| ANO2 (anoctamin 2) | 0.65 | inactive |
| PPP4R2 (protein phosphatase 4 regulatory subunit 2) | -0.38 | inactive |
| PPP4R2 (protein phosphatase 4 regulatory subunit 2) | -1.26 | inactive |
| PPP4R2 (protein phosphatase 4 regulatory subunit 2) | -1.65 | active |
| PPP4R2 (protein phosphatase 4 regulatory subunit 2) | 0.03 | inactive |
| ANKRD53 (ankyrin repeat domain 53) | -0.09 | inactive |
| ANKRD53 (ankyrin repeat domain 53) | -0.53 | inactive |
| ANKRD53 (ankyrin repeat domain 53) | -0.19 | inactive |
| ANKRD53 (ankyrin repeat domain 53) | 0.31 | inactive |
| FIGNL2 (fidgetin like 2) | -0.42 | inactive |
| FIGNL2 (fidgetin like 2) | 0.16 | inactive |
| FIGNL2 (fidgetin like 2) | -0.66 | inactive |
| FIGNL2 (fidgetin like 2) | 0.01 | inactive |
| KLRC3 (killer cell lectin like receptor C3) | 1.01 | inactive |
| KLRC3 (killer cell lectin like receptor C3) | 0.27 | inactive |
| KLRC3 (killer cell lectin like receptor C3) | 1.38 | inactive |
| KLRC3 (killer cell lectin like receptor C3) | 0.11 | inactive |
| NBR1 (NBR1 autophagy cargo receptor) | -0.15 | inactive |
| NBR1 (NBR1 autophagy cargo receptor) | 0.69 | inactive |
| NBR1 (NBR1 autophagy cargo receptor) | -0.34 | inactive |
| NBR1 (NBR1 autophagy cargo receptor) | 0.01 | inactive |
| RAB18 (RAB18, member RAS oncogene family) | -0.87 | inactive |
| RAB18 (RAB18, member RAS oncogene family) | 0.21 | inactive |
| RAB18 (RAB18, member RAS oncogene family) | -0.77 | inactive |
| RAB18 (RAB18, member RAS oncogene family) | 0.72 | inactive |
| SOX13 (SRY-box transcription factor 13) | -1.9 | active |
| SOX13 (SRY-box transcription factor 13) | -2.03 | active |
| SOX13 (SRY-box transcription factor 13) | -1.89 | active |
| ZFP82 (ZFP82 zinc finger protein) | 0.41 | inactive |
| ZFP82 (ZFP82 zinc finger protein) | 0.94 | inactive |
| ZFP82 (ZFP82 zinc finger protein) | 1.75 | inactive |
| ZFP82 (ZFP82 zinc finger protein) | 2.42 | inactive |
| SNAPC2 (small nuclear RNA activating complex polypeptide 2) | 0.14 | inactive |
| SNAPC2 (small nuclear RNA activating complex polypeptide 2) | 1.94 | inactive |
| SNAPC2 (small nuclear RNA activating complex polypeptide 2) | 0.51 | inactive |
| SNAPC2 (small nuclear RNA activating complex polypeptide 2) | 0.32 | inactive |
| OR5W2 (olfactory receptor family 5 subfamily W member 2) | -1.78 | active |
| OR5W2 (olfactory receptor family 5 subfamily W member 2) | -1.05 | inactive |
| OR5W2 (olfactory receptor family 5 subfamily W member 2) | 0.17 | inactive |
| OR5W2 (olfactory receptor family 5 subfamily W member 2) | -0.27 | inactive |
